Reference: article PMC10911279

T1: Vap33-V5 (Drosophila) (UniProt Q9W4N8)
T1 sequence: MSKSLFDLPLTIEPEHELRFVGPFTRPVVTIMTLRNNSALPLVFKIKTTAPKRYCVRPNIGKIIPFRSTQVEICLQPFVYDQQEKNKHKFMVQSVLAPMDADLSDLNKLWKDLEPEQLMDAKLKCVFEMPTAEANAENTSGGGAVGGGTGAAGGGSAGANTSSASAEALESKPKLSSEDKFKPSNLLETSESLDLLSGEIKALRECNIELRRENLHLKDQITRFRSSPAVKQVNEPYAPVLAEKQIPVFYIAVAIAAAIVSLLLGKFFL


Columns and labels:
[1] = target: T1, Vap33-V5 (Drosophila); experiment: co-IP; co-transfected S2 cells; lysates in DLB incubated with anti-V5, anti-HA or anti-Flag beads for 2 h at 4°C; western blot
[2] = target: RtGEF-HA (Drosophila); experiment: as above

Molecule | binding [1] | binding [2]
RtGEF-HA (Drosophila) | binds | –
Vap33-V5 (protein, UniProt Q9W4N8 1-269) MSKSLFDLPLTIEPEHELRFVGPFTRPVVTIMTLRNNSALPLVFKIKTTAPKRYCVRPNIGKIIPFRSTQVEICLQPFVYDQQEKNKHKFMVQSVLAPMDADLSDLNKLWKDLEPEQLMDAKLKCVFEMPTAEANAENTSGGGAVGGGTGAAGGGSAGANTSSASAEALESKPKLSSEDKFKPSNLLETSESLDLLSGEIKALRECNIELRRENLHLKDQITRFRSSPAVKQVNEPYAPVLAEKQIPVFYIAVAIAAAIVSLLLGKFFL | – | binds

No constants are given. Whether binding was seen depends on the method and setting. In cells and extracts the contact can be indirect. Binding can be weak; no strength is given. Sequences can lack the tags named with a protein.
